PubChem BioAssay AID1508597 – Cure First – 2020
This is a random part of the about 2,100 reagents, under one of the conditions tested. 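Calls flag viability under 80% in either arm, not effects specific to rucaparib; the reference for percent is not stated.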 Some reagents were tested in more than one well and are listed for each. Reagent sequences are not shown. Not given: the 100% reference.

Screen: 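Genes whose silencing sensitises or protects ovarian cancer cells against rucaparib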 (primary screen)
Cells: human ovarian carcinoma lines grown from tumours: OCI-P5x (papillary serous) and OCI-C5x (clear cell)
Knock-down reagent: siRNA pool against human genes, 1.25 pmol siRNA per well
Timing: 72 h or 96 h, depending on the cell culture
Treatment: rucaparib 20 µM (about IC30) or vehicle, present until read-out
Rucaparib or vehicle: Vehicle
Cell line: OCI-P5x (serous)
Measurement: 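Luminescent ATP-based viability assay read 72 or 96 h after transfection, depending on culture, given as normalised percent viability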
Scale: viability, normalised: higher = more viable cells remaining
Hit rule: 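a well counts as a hit if its normalised viability is under 80 percent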
Meaning of the calls: active = viability under 80%; inactive = viability 80% or more

The first 4 records as a preview:
Target gene | technical replicate | viability, normalised (%) | activity call
PIK3R1 | 1 | 47.9 | active
PIK3R1 | 2 | 52.1 | active
PIK3R1 | 3 | 81.1 | inactive
JADE2 | 1 | 38.1 | active

Results, from the start:
Target gene | technical replicate | viability, normalised (%) | activity call
PIK3R1 | 1 | 47.9 | active
PIK3R1 | 2 | 52.1 | active
PIK3R1 | 3 | 81.1 | inactive
JADE2 | 1 | 38.1 | active
JADE2 | 2 | 40.7 | active
JADE2 | 3 | 67.9 | active
DDX25 | 1 | 56.9 | active
DDX25 | 2 | 51.4 | active
DDX25 | 3 | 65.5 | active
DAPK2 | 1 | 82.3 | inactive
DAPK2 | 2 | 66.2 | active
DAPK2 | 3 | 70.6 | active
CHMP1A | 1 | 73.1 | active
CHMP1A | 2 | 67.1 | active
CHMP1A | 3 | 83 | inactive
ITIH4 | 1 | 83.3 | inactive
ITIH4 | 2 | 86.3 | inactive
ITIH4 | 3 | 93.6 | inactive
PIK3R3 | 1 | 83.2 | inactive
PIK3R3 | 2 | 75.8 | active
PIK3R3 | 3 | 79.7 | active
MED9 | 1 | 63 | active
MED9 | 2 | 69.2 | active
MED9 | 3 | 78.4 | active
MGMT | 1 | 79.4 | active
MGMT | 1 | 73.8 | active
MGMT | 2 | 80.8 | inactive
MGMT | 2 | 72.2 | active
MGMT | 3 | 71.4 | active
MGMT | 3 | 67.1 | active
SKP1 | 1 | 121 | inactive
SKP1 | 2 | 114 | inactive
SKP1 | 3 | 92.9 | inactive
NME8 | 1 | 62.3 | active
NME8 | 1 | 58.3 | active
NME8 | 2 | 58.8 | active
NME8 | 2 | 82.2 | inactive
NME8 | 3 | 59.5 | active
NME8 | 3 | 68.6 | active
NAP1L2 | 1 | 53.9 | active
NAP1L2 | 2 | 54.2 | active
NAP1L2 | 3 | 115 | inactive
DDX4 | 1 | 49.8 | active
DDX4 | 2 | 57 | active
DDX4 | 3 | 57.5 | active
SBNO1 | 1 | 60.2 | active
SBNO1 | 2 | 58.8 | active
SBNO1 | 3 | 72.4 | active
NR3C1 | 1 | 21.5 | active
NR3C1 | 2 | 31 | active
NR3C1 | 3 | 30.8 | active
MAPK11 | 1 | 77.3 | active
MAPK11 | 2 | 83.5 | inactive
MAPK11 | 3 | 71.5 | active
GUCY2D | 1 | 62.4 | active
GUCY2D | 2 | 60.5 | active
GUCY2D | 3 | 70.9 | active
